Measured values reported in patent US11414413B2, “Heterocyclic compound as JAK inhibitor, and salts and therapeutic use thereof” (Suzhou Longbiotech Pharmaceuticals Co., Ltd., priority 2016, dated 2022).
At least one structure is not confirmed: it was looked up by name or label, or the drawing left a doubt.

Sequences of proteins named here, by UniProt entry; tags and fusion partners are left off. A change or cut given only in a name is not applied to a line headed by its entry.
UniProt P23458: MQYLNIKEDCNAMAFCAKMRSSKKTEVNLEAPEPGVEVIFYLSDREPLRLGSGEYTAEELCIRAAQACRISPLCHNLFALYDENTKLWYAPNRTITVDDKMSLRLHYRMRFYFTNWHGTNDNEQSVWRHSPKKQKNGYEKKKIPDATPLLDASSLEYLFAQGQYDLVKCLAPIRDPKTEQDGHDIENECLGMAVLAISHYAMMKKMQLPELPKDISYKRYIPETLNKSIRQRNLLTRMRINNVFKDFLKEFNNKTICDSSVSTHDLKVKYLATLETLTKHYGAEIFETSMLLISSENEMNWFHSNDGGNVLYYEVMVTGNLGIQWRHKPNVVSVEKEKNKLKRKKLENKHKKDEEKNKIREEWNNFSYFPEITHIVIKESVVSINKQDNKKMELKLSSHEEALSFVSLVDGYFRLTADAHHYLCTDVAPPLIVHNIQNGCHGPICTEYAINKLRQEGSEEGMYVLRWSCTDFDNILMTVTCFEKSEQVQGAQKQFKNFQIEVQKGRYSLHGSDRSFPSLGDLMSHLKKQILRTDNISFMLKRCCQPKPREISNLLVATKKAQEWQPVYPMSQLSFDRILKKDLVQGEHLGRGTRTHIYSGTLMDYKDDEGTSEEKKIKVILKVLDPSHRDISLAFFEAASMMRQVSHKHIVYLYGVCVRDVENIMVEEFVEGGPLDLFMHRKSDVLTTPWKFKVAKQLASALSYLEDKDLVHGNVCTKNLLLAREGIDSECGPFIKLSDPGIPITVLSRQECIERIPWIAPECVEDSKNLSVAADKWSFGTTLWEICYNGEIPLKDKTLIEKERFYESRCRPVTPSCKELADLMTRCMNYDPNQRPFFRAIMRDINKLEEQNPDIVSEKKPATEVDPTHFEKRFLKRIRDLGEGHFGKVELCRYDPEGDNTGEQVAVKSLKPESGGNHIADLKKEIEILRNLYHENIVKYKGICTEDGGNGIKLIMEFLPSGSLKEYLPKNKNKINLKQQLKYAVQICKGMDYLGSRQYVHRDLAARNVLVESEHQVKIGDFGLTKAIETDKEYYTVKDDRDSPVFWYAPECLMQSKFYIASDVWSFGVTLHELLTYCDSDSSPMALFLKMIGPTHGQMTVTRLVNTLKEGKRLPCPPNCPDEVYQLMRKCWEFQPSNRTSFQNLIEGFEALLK
UniProt O60674: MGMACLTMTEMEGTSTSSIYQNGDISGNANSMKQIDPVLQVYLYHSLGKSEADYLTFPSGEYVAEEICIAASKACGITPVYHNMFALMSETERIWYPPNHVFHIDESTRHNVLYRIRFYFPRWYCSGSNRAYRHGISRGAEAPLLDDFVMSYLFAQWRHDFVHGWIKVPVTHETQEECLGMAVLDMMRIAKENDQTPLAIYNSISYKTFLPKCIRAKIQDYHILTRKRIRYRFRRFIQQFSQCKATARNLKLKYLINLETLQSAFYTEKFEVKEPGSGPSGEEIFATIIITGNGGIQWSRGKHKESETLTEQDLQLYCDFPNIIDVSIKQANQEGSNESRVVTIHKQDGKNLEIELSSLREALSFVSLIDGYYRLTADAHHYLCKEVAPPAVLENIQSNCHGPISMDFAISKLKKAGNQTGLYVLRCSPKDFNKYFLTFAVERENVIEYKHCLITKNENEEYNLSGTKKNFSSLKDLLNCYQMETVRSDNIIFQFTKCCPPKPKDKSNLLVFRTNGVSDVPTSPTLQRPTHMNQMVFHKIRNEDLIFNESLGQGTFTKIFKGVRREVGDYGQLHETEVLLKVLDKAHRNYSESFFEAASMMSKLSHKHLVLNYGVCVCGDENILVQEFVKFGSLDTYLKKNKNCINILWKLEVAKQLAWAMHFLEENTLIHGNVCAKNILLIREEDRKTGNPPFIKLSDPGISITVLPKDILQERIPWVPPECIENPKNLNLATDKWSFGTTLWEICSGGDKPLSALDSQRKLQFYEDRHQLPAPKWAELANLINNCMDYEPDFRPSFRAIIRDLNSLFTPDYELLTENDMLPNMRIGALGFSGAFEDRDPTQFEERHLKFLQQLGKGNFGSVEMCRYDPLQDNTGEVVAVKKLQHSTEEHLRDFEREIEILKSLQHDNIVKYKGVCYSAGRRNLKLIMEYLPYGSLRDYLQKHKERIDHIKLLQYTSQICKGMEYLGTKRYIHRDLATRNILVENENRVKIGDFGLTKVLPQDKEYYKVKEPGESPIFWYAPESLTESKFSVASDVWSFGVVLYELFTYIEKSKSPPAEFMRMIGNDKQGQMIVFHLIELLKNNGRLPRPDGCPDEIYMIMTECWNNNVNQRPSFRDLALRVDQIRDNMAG

How the values were obtained:
JAK1 = JAK1 (Homo sapiens (Human), UniProt P23458); assay: Inhibition of JAK1, luminescence kinase assay (ADP-Glo); type: biochemical
Protocol: (§1) The study of the effect of compounds on the activity of purified recombinant JAK was performed by studying the inhibitory activity of the compounds on JAK from the enzymatic level. The experimental principle is to use a luminescence kinase assay to detect the ADP content produced by the reaction of JAK with the substrate Poly (4:1 Glu, Tyr) peptide: after ADP is converted to ATP, ATP can act as a substrate for the Ultra-Glo luciferase catalytic reaction, producing an optical signal. The luminescence signal is positively correlated with the amount of ADP and kinase activity. Therefore, the inhibitory effect of the compounds on the recombinant JAK was determined by observing the luminescence signal produced by the reaction of JAK and the substrate, and was expressed by IC50.
(§2) Experimental method: 10 different concentrations of compounds were incubated with JAK1, JAK2 and JAK3, respectively, for 60 minutes at 37° C. The substrate and ATP were then added, mixed, and reacted at 37° C. for 50 minutes. 25 μl of ADP-Glo™ was added and mixed for 2 minutes. The reaction was carried out for 50 minutes at room temperature. Further, 50 μl of the detection reagent was added and mixed for 2 minutes, and incubated at room temperature for 50 minutes, and detected by a chemiluminometer.

JAK2 = JAK2 (Homo sapiens (Human), UniProt O60674); assay: Inhibition of JAK2, luminescence kinase assay (ADP-Glo); type: biochemical
Protocol: as §1, §2

`N#CCC1(n2cc(-c3ncnc4[nH]ccc34)cn2)CCS(=O)(=O)CC1` [Example 3, 2-(4-(4-(7H-pyrrolo[2,3-d]pyrimidin-4-yl)-1H-pyrazol-1-yl)-1,1-dioxotetrahydro-2H-thiopyran-4-yl)acetonitrile] was tested, and the “inhibitory activity against JAK1 (in words)” value (JAK1) was “high inhibitory activity”, the “selectivity for JAK1 (JAK1 versus JAK2)” value (JAK1; JAK1 versus JAK2) was “higher than that of Baricitinib and Ruxolitinib” and the “inhibitory activity against JAK2 (in words)” value (JAK2) was “low inhibitory activity”.
